Assay results from PMC10226596, “The ethylene-responsive transcription factor PpERF9 represses PpRAP2.4 and PpMYB114 via histone deacetylation to inhibit anthocyanin biosynthesis in pear”.

System: PpERF9
Assay: EMSA
Settings: cold competitor 50-, 100-, 200-fold; LightShift Chemiluminescent EMSA Kit (Thermo Scientific); pH and temperature not stated; recombinant protein; protein details: His (pET32a); label: 3' biotin (hot probe), unlabeled as competitor

Row | Sequence | binding result
1 | CCAGACCAAGACTAACTGGGAGTCCACCGACAGGTGCCGGTTGGAAAAGGACAGGTG (double strand) [ProRAP2.4-probe] | binds
2 | GCTTGCCGTCTTTGTCGTCTCCGGCGCCGCCATCTACATCTGCTTCCAGGTTCAAC (double strand) [ProMYB114-probe] | binds

Construct, isoform or probe ends are uncertain for at least one entry.
